# These are yes or no findings as the source states them, for the method shown. Some results given as binding are weak or reduced against the parent protein; the word gives no strength.
# Sequences of proteins named here, by UniProt entry; tags and fusion partners are left off.
# UniProt A0R5Z0: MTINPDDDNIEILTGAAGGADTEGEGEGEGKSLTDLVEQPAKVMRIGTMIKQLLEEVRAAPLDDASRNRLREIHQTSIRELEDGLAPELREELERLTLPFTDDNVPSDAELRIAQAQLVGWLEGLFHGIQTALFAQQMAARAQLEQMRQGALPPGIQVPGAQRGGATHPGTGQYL
# Experiments:
# [1] = molecular target: T18-MsmPrcA (Msmeg_3894, proteasome α-subunit of Mycobacterium smegmatis) (Mycobacterium smegmatis MC2-155) (UniProt A0QZ46); experiment: two-hybrid
# [2] = molecular target: T18-MsmΔ7PrcA (open-gate variant of the M. smegmatis proteasome α-subunit) (Mycobacterium smegmatis MC2-155) (UniProt A0QZ46); experiment: two-hybrid
substance,measurement,setting,value
"T25-MsmBpa (Msmeg_6365, Bpa homolog of Mycobacterium smegmatis) (from UniProt A0R5Z0 1-175)",binding,[1],binds
same,binding,[2],binds

# Source: article PMC4254994 (PLoS ONE, 2014)
